In patent US8816082B2, “Heterocyclyl-pyridinyl-based biphosphonic acid, pharmaceutically acceptable salt thereof, composition thereof and method of use thereof” (The Royal Institution for the Advancement of …, priority 2010, dated 2014):
Some of these results come from one statement about several compounds together.

Biological target: T1, human farnesyl pyrophosphate synthase (hFPPS) (Homo sapiens, UniProt P14324)
T1 sequence (P14324 1-419): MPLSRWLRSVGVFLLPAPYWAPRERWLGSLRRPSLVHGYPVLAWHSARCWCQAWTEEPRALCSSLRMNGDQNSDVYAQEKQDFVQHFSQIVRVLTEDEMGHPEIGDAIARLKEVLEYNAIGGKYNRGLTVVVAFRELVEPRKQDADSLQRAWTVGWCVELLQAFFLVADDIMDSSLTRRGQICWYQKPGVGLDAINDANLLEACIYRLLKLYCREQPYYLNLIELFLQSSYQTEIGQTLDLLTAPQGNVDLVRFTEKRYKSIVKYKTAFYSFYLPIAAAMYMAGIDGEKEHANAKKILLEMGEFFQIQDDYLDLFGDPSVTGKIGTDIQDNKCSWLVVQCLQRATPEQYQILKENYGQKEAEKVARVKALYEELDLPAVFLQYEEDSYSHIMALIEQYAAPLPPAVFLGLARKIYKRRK
Experiment: In vitro enzymatic inhibition assay for hFPPS, initial screening conditions (partly purified enzyme, 5 min pre-incubation)
Assay type: biochemical
Conditions: hFPPS assay conducted on compounds of Examples 1 to 42

IC50, ≤ 100 µM:
O=P(O)(O)C(Nc1cc(-c2ccc(F)cc2)ccn1)P(=O)(O)O [Compound 42]
O=P(O)(O)C(Nc1cc(-c2ccc(Cl)cc2)ccn1)P(=O)(O)O [Compound 40]
O=P(O)(O)C(Nc1cc(-c2cccnc2)ccn1)P(=O)(O)O [Compound 22]
O=P(O)(O)C(Nc1ccc(-c2ccsc2)cn1)P(=O)(O)O [Compound 29]
O=P(O)(O)C(Nc1cccc(-c2ccsc2)n1)P(=O)(O)O [Compound 16]
O=P(O)(O)C(Cc1cc(-c2ccc3[nH]ncc3c2)cnc1-c1ccsc1)P(=O)(O)O [Compound 32, (2-(5-(1H-indazol-5-yl)-2-(thiophen-3-yl)pyridin-3-yl)ethane-1,1-diyl)diphosphonic acid]
O=P(O)(O)C(Nc1ncccc1Br)P(=O)(O)O [Compound 36]
COc1cccc(-c2ccnc(NC(P(=O)(O)O)P(=O)(O)O)c2)c1 [Compound 24]
O=P(O)(O)C(Nc1cc(-c2ccc3ccccc3c2)ccn1)P(=O)(O)O [Compound 26]
O=P(O)(O)C(F)(Cc1ccnc(-c2cccc3[nH]ncc23)c1)P(=O)(O)O [Compound 4, (2-(2-(1H-indazol-4-yl)pyridin-4-yl)-1-fluoroethane-1,1-diyl)diphosphonic acid]
O=P(O)(O)C(Nc1cccc(-c2cccs2)n1)P(=O)(O)O [Compound 15]
O=P(O)(O)C(Nc1cc(-c2cccs2)ccn1)P(=O)(O)O [Compound 19]
O=P(O)(O)C(Cc1cncc(-c2ccccc2)c1)P(=O)(O)O [Compound 34]
O=P(O)(O)C(Nc1ccc(-c2ccc3[nH]ncc3c2)cn1)P(=O)(O)O [Compound 27]
O=P(O)(O)C(Nc1cc(-c2cccc(C(F)(F)F)c2)ccn1)P(=O)(O)O [Compound 20]
O=P(O)(O)C(F)(Cc1cncc(-c2ccc3cn[nH]c3c2)c1)P(=O)(O)O [Compound 9]
O=P(O)(O)C(Nc1cc(-c2ccsc2)ccn1)P(=O)(O)O [Compound 18, (((4-(thiophen-3-yl)pyridin-2-yl)amino)methylene)diphosphonic acid]
Cc1ccc(-c2ccnc(NC(P(=O)(O)O)P(=O)(O)O)c2)cc1 [Compound 39]
O=P(O)(O)C(Nc1cccc(-c2ccc3[nH]ncc3c2)n1)P(=O)(O)O [Compound 13]
O=P(O)(O)C(Nc1cc(Br)ccn1)P(=O)(O)O [Compound 37]
COc1ccccc1-c1ccnc(NC(P(=O)(O)O)P(=O)(O)O)c1 [Compound 23]
Cc1noc(C)c1-c1cncc(CC(F)(P(=O)(O)O)P(=O)(O)O)c1 [Compound 10]
O=P(O)(O)C(Cc1cc(-c2ccc3[nH]ncc3c2)cnc1Br)P(=O)(O)O [Compound 33]
O=P(O)(O)C(Nc1cccc(-c2ccccc2)n1)P(=O)(O)O [Compound 12]
CCCCNc1ncc(-c2ccccc2)cc1CC(P(=O)(O)O)P(=O)(O)O [Compound 35, (2-(2-(butylamino)-5-phenylpyridin-3-yl)ethane-1,1-diyl)diphosphonic acid]
O=P(O)(O)C(Nc1ccc(-c2ccccc2)cn1)P(=O)(O)O [Compound 28]
O=P(O)(O)C(Nc1ncccc1-c1ccccc1)P(=O)(O)O [Compound 30]
O=P(O)(O)C(F)(Cc1ccc(-c2ccc3[nH]ncc3c2)cn1)P(=O)(O)O [Compound 8]
O=P(O)(O)C(Cc1cc(-c2cn[nH]c2)cnc1-c1ccsc1)P(=O)(O)O [Compound 31]
N#Cc1ccc(-c2cccs2)nc1NC(P(=O)(O)O)P(=O)(O)O [Compound 11, (((3-cyano-6-(thiophen-2-yl)pyridin-2-yl)amino)methylene)diphosphonic acid]
O=P(O)(O)C(F)(Cc1cc(-c2cccc3[nH]ncc23)ccn1)P(=O)(O)O [Compound 5]
O=P(O)(O)C(Nc1cc(-c2cc(C(F)(F)F)cc(C(F)(F)F)c2)ccn1)P(=O)(O)O [Compound 21]
O=P(O)(O)C(Nc1cc(-c2ccc3[nH]ncc3c2)ccn1)P(=O)(O)O [Compound 14]
O=P(O)(O)C(F)(Cc1cncc(-c2cccc3[nH]ncc23)c1)P(=O)(O)O [Compound 6]
